Measured values: publication PMC3944433

By UniProt entry, the sequences of proteins in these tests, tags left out. Where a name states a change or a piece, a line headed by the entry shows the natural chain unless it says otherwise. Chains listed by the source or under a name are the forms on record and can include a tag or linker. Residues count along the entry.
UniProt Q9VQ56: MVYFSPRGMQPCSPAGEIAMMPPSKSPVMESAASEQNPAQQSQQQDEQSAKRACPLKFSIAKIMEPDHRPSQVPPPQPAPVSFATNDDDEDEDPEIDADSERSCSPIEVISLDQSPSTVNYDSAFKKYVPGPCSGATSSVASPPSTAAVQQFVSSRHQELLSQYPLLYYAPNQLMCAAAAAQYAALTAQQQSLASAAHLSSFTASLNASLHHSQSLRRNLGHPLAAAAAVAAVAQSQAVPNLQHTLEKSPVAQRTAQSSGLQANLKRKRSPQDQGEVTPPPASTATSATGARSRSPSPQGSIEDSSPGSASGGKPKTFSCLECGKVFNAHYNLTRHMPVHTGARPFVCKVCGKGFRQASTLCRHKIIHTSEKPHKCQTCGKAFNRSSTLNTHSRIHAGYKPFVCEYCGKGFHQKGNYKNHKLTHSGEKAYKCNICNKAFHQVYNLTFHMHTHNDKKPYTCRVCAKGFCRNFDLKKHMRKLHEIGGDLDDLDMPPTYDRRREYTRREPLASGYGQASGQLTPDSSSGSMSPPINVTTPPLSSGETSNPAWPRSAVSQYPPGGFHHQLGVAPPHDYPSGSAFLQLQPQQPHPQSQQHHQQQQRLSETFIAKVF
Flag-tagged Erm N-terminal 1-441aa (Drosophila (D. melanogaster)): residues 1-441 of Q9VQ56
Flag-tagged Erm C-terminal 332-611aa (Drosophila (D. melanogaster)): residues 332-611 of Q9VQ56
UniProt Q24090: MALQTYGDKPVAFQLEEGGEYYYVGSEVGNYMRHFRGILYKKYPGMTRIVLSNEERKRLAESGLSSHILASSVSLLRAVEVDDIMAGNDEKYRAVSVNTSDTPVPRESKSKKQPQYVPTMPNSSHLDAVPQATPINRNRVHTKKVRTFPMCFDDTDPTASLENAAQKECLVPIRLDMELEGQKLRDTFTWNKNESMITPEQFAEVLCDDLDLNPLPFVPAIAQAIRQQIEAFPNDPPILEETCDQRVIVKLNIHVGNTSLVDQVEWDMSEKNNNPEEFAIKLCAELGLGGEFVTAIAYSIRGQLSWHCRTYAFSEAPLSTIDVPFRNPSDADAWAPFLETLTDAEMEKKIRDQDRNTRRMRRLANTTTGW

Columns and labels:
[1] = target: MBP-Erm-C (Maltose-Binding Protein fused to Erm 332-611aa) (Drosophila (D. melanogaster)) (UniProt Q9VQ56); experiment: pull-down; 50 μg purified MBP or MBP fusion protein bound on amylose resin, incubated 3 hr at 4°C with protein extracts from transfected S2 cells; washed three times with lysis buffer; western blot with anti-Myc; only the target purified
[2] = target: MBP-Erm-N (Maltose-Binding Protein fused to Erm 1-441aa) (Drosophila (D. melanogaster)) (UniProt Q9VQ56); experiment: as above
[3] = target: Flag-tagged Erm C-terminal 332-611aa (Drosophila (D. melanogaster)) (UniProt Q9VQ56); experiment: co-IP; S2 cells co-transfected with Flag- and Myc-tagged proteins; lysis buffer 25 mM Tris pH8, 27.5 mM NaCl, 20 mM KCl, 0.5% Nonidet P40; IP with anti-Myc or anti-Flag overnight at 4°C, protein A/G beads; western blot with anti-Flag and anti-Myc
[4] = target: Flag-tagged Erm N-terminal 1-441aa (Drosophila (D. melanogaster)) (UniProt Q9VQ56); experiment: as above

- binding [1]: binds weakly
- binding [2]: binds
- binding [3]: binds
- binding [4]: binds
Substance: Myc-tagged Snr1 (from UniProt Q24090)

No constants are given. Whether binding was seen depends on the method and setting. Binding seen in cells or lysates may run through a third protein. A result given as binding can be weak or reduced; the word gives no strength.
